Data reported in PMC9818470.
These are yes or no findings as the source states them, for the method shown. Binding seen in cells or lysates may run through a third protein. Some binding calls cover weakened binding; strength is not graded here.

By UniProt entry, the sequences of proteins in these tests, tags left out. Where a name states a change or a piece, a line headed by the entry shows the natural chain unless it says otherwise. Chains listed by the source or under a name are the forms on record and can include a tag or linker.
UniProt Q8N163: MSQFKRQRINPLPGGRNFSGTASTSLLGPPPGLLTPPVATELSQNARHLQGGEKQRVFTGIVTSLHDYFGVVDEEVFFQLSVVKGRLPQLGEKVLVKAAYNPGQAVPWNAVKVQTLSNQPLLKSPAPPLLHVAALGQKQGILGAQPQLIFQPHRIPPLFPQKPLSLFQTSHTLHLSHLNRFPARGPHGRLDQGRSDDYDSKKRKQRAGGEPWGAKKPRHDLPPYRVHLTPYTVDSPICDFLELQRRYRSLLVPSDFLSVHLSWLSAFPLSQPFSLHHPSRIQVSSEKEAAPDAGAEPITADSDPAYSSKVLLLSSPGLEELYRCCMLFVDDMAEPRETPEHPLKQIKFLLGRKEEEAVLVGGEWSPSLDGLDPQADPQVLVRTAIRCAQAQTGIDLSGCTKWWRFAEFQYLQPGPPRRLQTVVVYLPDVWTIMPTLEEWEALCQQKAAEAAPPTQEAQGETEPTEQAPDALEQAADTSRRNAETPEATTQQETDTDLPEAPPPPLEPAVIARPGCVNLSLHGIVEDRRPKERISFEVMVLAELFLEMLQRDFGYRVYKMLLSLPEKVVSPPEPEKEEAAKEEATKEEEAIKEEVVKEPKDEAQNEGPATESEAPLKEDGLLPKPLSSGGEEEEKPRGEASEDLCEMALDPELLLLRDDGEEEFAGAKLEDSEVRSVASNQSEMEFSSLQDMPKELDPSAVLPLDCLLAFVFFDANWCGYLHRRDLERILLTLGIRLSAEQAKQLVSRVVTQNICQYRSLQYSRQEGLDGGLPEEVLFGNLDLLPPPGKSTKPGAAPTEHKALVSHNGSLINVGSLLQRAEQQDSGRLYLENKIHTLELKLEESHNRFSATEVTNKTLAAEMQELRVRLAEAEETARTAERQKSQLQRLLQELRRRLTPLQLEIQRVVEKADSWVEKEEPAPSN
DBC1 ΔNudix (Q8N163, form named): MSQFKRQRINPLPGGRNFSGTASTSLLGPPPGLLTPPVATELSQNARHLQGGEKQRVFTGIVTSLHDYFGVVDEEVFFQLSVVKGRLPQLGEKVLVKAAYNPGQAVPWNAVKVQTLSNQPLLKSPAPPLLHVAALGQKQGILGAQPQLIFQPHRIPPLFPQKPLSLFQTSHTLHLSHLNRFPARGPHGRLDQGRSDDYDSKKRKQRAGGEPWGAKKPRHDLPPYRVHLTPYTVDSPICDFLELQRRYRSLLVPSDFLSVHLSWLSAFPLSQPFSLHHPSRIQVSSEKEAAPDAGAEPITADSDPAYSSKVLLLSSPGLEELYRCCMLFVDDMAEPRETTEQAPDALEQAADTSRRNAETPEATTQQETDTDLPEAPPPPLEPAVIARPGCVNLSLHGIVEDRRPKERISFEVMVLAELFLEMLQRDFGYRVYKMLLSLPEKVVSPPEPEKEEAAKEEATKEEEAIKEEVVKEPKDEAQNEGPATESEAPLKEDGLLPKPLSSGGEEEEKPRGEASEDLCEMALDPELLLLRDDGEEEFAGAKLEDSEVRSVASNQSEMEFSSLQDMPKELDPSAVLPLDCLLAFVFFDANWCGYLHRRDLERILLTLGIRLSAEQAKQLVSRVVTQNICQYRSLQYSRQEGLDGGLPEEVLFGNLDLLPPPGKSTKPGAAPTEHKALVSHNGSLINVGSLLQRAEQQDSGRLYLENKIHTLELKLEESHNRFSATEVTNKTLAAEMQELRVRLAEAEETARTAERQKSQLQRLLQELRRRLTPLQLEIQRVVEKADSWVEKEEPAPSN
UniProt P54132: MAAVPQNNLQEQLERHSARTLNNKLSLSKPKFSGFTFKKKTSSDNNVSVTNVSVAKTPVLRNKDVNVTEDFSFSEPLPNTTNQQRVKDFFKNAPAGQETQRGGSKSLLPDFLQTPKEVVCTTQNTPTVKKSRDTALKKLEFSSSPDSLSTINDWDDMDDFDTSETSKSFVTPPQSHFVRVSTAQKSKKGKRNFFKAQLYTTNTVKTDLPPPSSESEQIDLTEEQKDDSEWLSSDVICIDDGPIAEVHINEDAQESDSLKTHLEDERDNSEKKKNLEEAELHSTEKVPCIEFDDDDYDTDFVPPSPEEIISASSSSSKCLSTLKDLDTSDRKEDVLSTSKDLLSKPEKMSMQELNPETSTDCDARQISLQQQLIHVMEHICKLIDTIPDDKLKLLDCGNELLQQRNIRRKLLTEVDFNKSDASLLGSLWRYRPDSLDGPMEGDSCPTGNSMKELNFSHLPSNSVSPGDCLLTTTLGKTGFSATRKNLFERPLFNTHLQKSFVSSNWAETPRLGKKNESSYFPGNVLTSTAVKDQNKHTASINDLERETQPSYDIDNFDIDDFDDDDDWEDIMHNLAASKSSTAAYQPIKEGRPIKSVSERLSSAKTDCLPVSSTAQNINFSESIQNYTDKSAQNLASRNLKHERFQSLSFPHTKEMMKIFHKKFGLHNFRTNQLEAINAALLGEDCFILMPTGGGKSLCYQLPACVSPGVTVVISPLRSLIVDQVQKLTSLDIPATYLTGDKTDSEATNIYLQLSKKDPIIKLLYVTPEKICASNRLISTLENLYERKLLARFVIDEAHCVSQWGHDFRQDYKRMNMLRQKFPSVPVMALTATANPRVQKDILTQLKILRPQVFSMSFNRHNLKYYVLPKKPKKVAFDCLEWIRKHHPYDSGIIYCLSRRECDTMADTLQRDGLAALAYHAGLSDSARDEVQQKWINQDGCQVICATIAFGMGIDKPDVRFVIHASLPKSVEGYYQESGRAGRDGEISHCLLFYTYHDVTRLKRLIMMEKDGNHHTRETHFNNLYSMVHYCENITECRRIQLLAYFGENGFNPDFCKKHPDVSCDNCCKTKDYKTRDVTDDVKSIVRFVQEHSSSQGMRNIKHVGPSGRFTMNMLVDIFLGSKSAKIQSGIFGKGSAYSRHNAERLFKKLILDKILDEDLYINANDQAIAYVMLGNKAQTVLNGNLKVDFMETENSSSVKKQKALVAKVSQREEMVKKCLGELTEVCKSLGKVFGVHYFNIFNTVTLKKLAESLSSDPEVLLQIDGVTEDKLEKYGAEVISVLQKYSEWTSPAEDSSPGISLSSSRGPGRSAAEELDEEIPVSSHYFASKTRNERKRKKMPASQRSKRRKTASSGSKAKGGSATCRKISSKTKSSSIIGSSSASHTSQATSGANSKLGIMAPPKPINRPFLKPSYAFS

Legend:
[1] = target: Deleted in Breast Cancer 1 (DBC1) (UniProt Q8N163); assay: co-IP; reciprocal immunoprecipitation of DBC1 and BLM from whole cell lysates, overnight, beads washed with Triton X-100 lysis buffer, Western blot
Flag-DBC1 [2] = target: Flag-DBC1 (UniProt Q8N163); assay: co-IP; in vitro IP: four equal aliquots of lysate of 293T cells transfected with pMSCV-Flag-DBC1, incubated with anti-FLAG M2 affinity gel and 0, 20, 50 or 100 μM ML216 for 12 h, Western blot for BLM
full-length DBC1 = full-length DBC1 (UniProt Q8N163); assay: co-IP; co-IP of full-length or truncated DBC1 with BLM from whole cell lysates, Western blot
DBC1 ΔNudix = DBC1 ΔNudix (UniProt Q8N163); assay: as above
Flag-DBC1 [3] = target: Flag-DBC1 (UniProt Q8N163); assay: co-IP; Flag-DBC1 immunoprecipitated, BLM blotted; cells treated with etoposide (100 μM), ML216 (50 μM) or both for 24 h

binding [1]: binds | binding (Flag-DBC1 [2]): binds | binding (full-length DBC1): binds | binding (DBC1 ΔNudix): binds | binding (Flag-DBC1 [3]): binds
Substance: BLM (Bloom syndrome protein) (from UniProt P54132 1-1417)
